Reference: US11632972B2, “S-nitrosothiol compounds and their combinations with nitrosamine blocking agents for safe food preservation” (YISSUM RESEARCH DEVELOPMENT COMPANY OF THE HEBREW …, priority 2017, dated 2023)

Tests used:
[1] = Effect on the color of the meat (Hunter L*, a*, b*, colorimeter); conditions: ground beef heated to 72° C.
Description: Nitrite is known to be responsible for the characteristic pink color associated with cured meat products and flavor stabilization. The color development and color stability of ground beef treated S-nitroso-cysteine and S-nitroso-N-acetylcysteine after heating to 72° C. was compared to the color of ground beef treated with nitrite. A portable colorimeter (X-rite) was used to measure Hunter color lightness, redness and yellowness (L*, a*, b*) values of ground beef samples treated with the different additives and heated in a microwave oven (Dow, S-Korea, at 800 W) to 72° C. in the center. The instrument was standardized using white and black standard plates.

[2] = N-nitrosamine formation from N-methylaniline in a meat model system (ground beef); conditions: for N-nitrosamines level: Experiment D: vacuum 100 mbar, 192 h storage at 4° C.; for change of concentration of N-nitrosamines after transfer to simulated stomach medium: Experiment F: pH 3.0; for N-nitrosamines levels: Experiment F: 2% NaCl, 3.27 mM ascorbic acid, stored 4° C. 216 hr
[3] = Experiment B: 2.5 mM additive, heated 72° C., stored 24 h at 4° C., homogenized pH 6.2
[4] = Experiment C: stored 24 h at 4° C., homogenized pH 3.0, incubated 37° C. 30 min (stomach conditions)

Compound	redness (Δa*) of meat compared with meat treated with sodium nitrite [1]	N-nitrosamines formation ([2]; Experiment A: 2.5 mM additive, heated 72° C., cooled to 4° C. (30 minutes), homogenized immediately pH 6.2)	N-nitrosamines formation [2, 3]	N-nitrosamines formation [2, 4]	N-nitrosamines level ([2]; heated 72° C.)	change of concentration of N-nitrosamines after transfer to simulated stomach medium [2]	reduction of N-nitrosamine formation in anaerobic conditions compared to aerobic conditions ([2]; vacuum bags vs aerobic)	increase of N-nitrosamines formation at acidic stomach pH ([2]; Experiment C compared with 24 h storage (Experiment B))	N-nitrosamine formation relative to the other agents ([2]; Experiment E: vacuum 8 mbar, after 216 hr)	N-nitrosamines levels ([2]; before transfer to simulated stomach medium)	N-nitrosamines levels ([2]; simulated stomach medium pH 3.0, 30 min, 37° C.)	increase of N-nitrosamines levels after transfer to simulated stomach medium ([2]; Experiment F: pH 3.0, 30 min, in the presence of ascorbic acid)	N-nitrosamine formation in anaerobic conditions compared to aerobic conditions ([2]; vacuum bags vs aerobic)
N[C@@H](CSN=O)C(=O)O [S-nitroso-cysteine, S-nitrosocysteine]	twofold redder	~28 µM	significantly higher than nitrite and S-nitroso-N-acetylcysteine	47 µM	~50 µM	almost did not change	~40%	–	–	–	–	–	–
O=NO [sodium nitrite]	–	–	15 µM	115 µM	~50 µM	–	~40%	eightfold	twofold higher than the other agents	~20 µM	90 µM	more than fourfold	–
CC(=O)N[C@@H](CSN=O)C(=O)O [S-nitroso-N-acetylcysteine]	twofold redder	–	13 µM	15 µM	~20 µM	almost did not change	–	–	–	–	–	–	remained low and the same
